# Test results published in PubChem BioAssay AID1508600 (Functional Genomics Laboratory (NCATS/FGL), 2020).
# About 3,700 (7%) of roughly 53,000 sequences were called active.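 How the source made its calls: active means gene knockdowns whose robust z-score for IL-1 alpha signal is at least 2 or at most -2, so actives lie on both sides; inactive means the rest.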 Some of the results follow.
# Assay: Components of the Cytosolic LPS Sensing Pathway: Gene Identification via Genome-wide siRNA Screen;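 further: robust z of the log signal after scaling to non-targeting control siRNA wells of the plate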
# Conditions: RAW264.7 macrophages, IL-1a HTRF, actives lie on both sides, screened at 100 nM (by protocol), cells primed 5 h with Pam3CSK4 first
# Method in brief: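 Mouse macrophage line RAW264.7 is transfected with siRNA (100 nM final), grown 48h, primed with TLR ligand Pam3CSK4 5 h and given intracellular LipidA 24 h. IL-1a in supernatant is read by HTRF and viability by luminescence.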
row,Sequence,z-score
1,GGAGGAGUCUUGAAUCCAGTT against Yod1,inactive: -0.122
2,GGCUGAAAAAAGUGGAGAATT against Sh3bgr,active: 2.12
3,GAUGAUUGACGACAUGGAATT against Rgs9bp,inactive: 0.656
4,GGUGUUUUACAUAUCGUAATT against Med20,inactive: -0.179
5,GGGAAAAAUUUCUUCUGUUTT against Olfr918,inactive: 0.357
6,GGCAGAUGCUAAAAAAGCUTT against Rnf128,inactive: 1.01
7,GCUACAACUAGAACAAUUATT against Hook1,inactive: -0.683
8,GGUACAUCGACUUCCUGUATT against Twist1,inactive: 0.475
9,GGACAUCACGCAAAUCGUGTT against Nmnat1,inactive: 0.615
10,GGACUUGAUCCCAAAGCUGTT against Mrpl17,inactive: -1.21
11,GCUCCGGAAAGUAAGCAGATT against Tnfrsf26,inactive: 0.259
12,UCAAUUUGACUGAUCUGCATT against Cyp2j11,inactive: -0.172
13,GGAAGGUAUCUGAGGUCCGTT against 2810408A11Rik,inactive: -0.106
14,GGCCUACCCAAUUCUUAACTT against Ces1g,inactive: -0.0881
15,GGGUUCAGGGUGGAAAAUGTT against Dntt,inactive: -1.15
16,GCCAGAGUGUCGAAUAUCATT against Dll4,inactive: -0.417
17,GCAGCUGAGAGUGACAUCATT against Atp1a2,inactive: -1.13
18,CCAGAUAAUGAACACUUUGTT against Wdr1,inactive: 0.447
19,GGAAAAACGGGAUCUGCCATT against A530053G22Rik,inactive: -0.323
20,CGUUUAUCAAUGUAGGUAATT against Kctd18,inactive: 0.8
21,GGCAUUCAAAAGGUAAAAUTT against Grid2,inactive: -0.515
22,CGCAUUCCUACCAAAAACCTT against Defb14,inactive: -1.69
23,GGCCACAGCAUCAUCAAUGTT against Mxra8,inactive: -0.608

row,Sequence,z-score
1,GCCCUUAGCUUGUGUUAUCTT against Hagh,inactive: -0.518
2,GGAAAGUCUUGAUGAGUUGTT against Ido2,inactive: 0.431
3,GCCAAUUGGAAACUGUGAGTT against Scmh1,inactive: -1.82
4,GGAUUUAUGGAAAAUUGGUTT against Zik1,inactive: 0.00163
5,GGAGCUUUUAAGAAUGUGGTT against Ireb2,inactive: -1.57
6,GGUUGCUGACAAAUGAAAGTT against Fcrla,inactive: 0.383
7,GGAACUGAUAGUAAUUGCCTT against Il7,inactive: 1.23
8,CCCACAGAUCAGAUGCAUCTT against Abhd6,inactive: 0.251
9,CCUUUUUAUCGCUUUACUGTT against Scn10a,inactive: 0.776
10,GCUCAACCCUCAUUGCUUCTT against Zc3h8,inactive: -1.95
11,GCAACAUCUUGGAUUUAGGTT against Ttc34,inactive: -1.38
12,GGAAGAUCCUUGGAAAAUUTT against Tmem135,inactive: 0.235
13,GGGAUCAAAGAUCAGUUAATT against Pih1d2,inactive: -0.98
14,CCGAGAUGCCAAUAAAUGATT against Tcl1,inactive: -0.371
15,CCAUCUACCGGAAAAUAACTT against Hdhd5,inactive: 0.378
16,GGAAAGAGCAAACAGUUCCTT against Il1f6,active: -2.09
17,GGCAUGAAAGCACAAAUGGTT against Czib,inactive: -0.21
18,CCAUCUCCUUUUCAGGGUGTT against Olfr747,inactive: -1.83
19,GGUUUUUAAGUGAUCCUUUTT against Slf2,inactive: -0.786
20,GCGUGGUGAUAGAAGAUAUTT against Pcdhgb8,inactive: -0.981
21,GUCUUUUAUACUUUGGUGGTT against Olfr1255,inactive: -1.73
22,GGAGAAGAUGAGAGAAUUUTT against Tph1,inactive: 1.34
23,GGUUCUUAUUUCACUAUUCTT against Nmu,inactive: -0.0688

# An excerpt of these results, tab-delimited.
row	Sequence	z-score
3	GAUGAUUGACGACAUGGAATT against Rgs9bp	inactive: 0.656
7	GCUACAACUAGAACAAUUATT against Hook1	inactive: -0.683
1	GCCCUUAGCUUGUGUUAUCTT against Hagh	inactive: -0.518

# Going on with the list:

row,Sequence,z-score
1,GGAAUGCUUUAUAAGUACATT against Tchp,inactive: -1.34
2,GGGCACUUAUUGCUACCUGTT against Wfs1,inactive: 1.48
3,GGUACUUCAUCGAUUCAGCTT against Zfp593,inactive: -0.561
4,GGGUUUUGAGAUGUAAUGATT against Marchf8,inactive: 0.0734
5,GGAAGUGGAGGAAAAGAAGTT against Pdcd7,active: -2.52
6,GGUCUGUAUGUCAUUUAUCTT against Ywhag,inactive: -0.208
7,GGCUUUUGAAAAUGACUACTT against Galnt5,inactive: 0.198
8,GGAUAACCAUAUACUUCUGTT against 1110006O24Rik,inactive: 0.191
9,GGCACUUAUGACACCUACATT against Fkbp10,inactive: -1.68
10,GGCAGAUUUAGGGAAAUAATT against Cfap126,inactive: -0.639
11,CCCGAUCAUGCAUAGCUGATT against Decr2,inactive: 1.21
12,GGCUCACAAGGAAGAGAUCTT against Cstad,inactive: -0.29
13,GCUAGGUCCCAAUUUUCACTT against Psg29,inactive: -0.152
14,GCUUCAUGCAAAAGUCACCTT against Prg3,inactive: 0.648
15,CGUACAUUGCUCUUCUUUUTT against Atp2a3,inactive: 1.17
16,GGAGAUUGCCAAGCAUAAGTT against Pcyt2,inactive: -0.918
17,GGAUAGCUCUAUCAACUCUTT against Serpinb3b,inactive: -0.455
18,GGCUUUACAGAUGUUAAAUTT against Ak3,inactive: 0.133
19,CCACACUGAGUUUUACUACTT against Il22ra1,inactive: -0.659
20,GGCAUCACUGAUGAAUGAATT against Pacsin2,inactive: -0.585
21,CGAGAAAUCCUGUAAACGUTT against Zfp781,inactive: -0.873
22,GGCUUUCCAGUGGAAUUCCTT against Lin9,inactive: 0.839
